Assay: peptide synthesis
Conditions: late stage modification step

| Substance | step yield |
| --- | --- |
| Cyclo-(MeBmt-(O-methyl-Thr)-Sar-MeLeu-Leu-MeLeu-Ala-D-Hiv-MeLeu-Leu-MeVal) | 87% |
| cyclo-[(3R,4R,5S)-4-(hydroxy)-3-methyl-5-(methylamino)-1-N-morpholino-hexanoic acid-(O-methyl-Thr)-Sar-MeLeu-Leu-MeLeu-Ala-D-Hiv-MeLeu-Leu-MeVal] | 43% |
